Drug screen on melanoma cell lines: apoptosis marker

Every entry is a combination with stibogluconate at 10 µM: O=C(O)[C@@H]1[O][Sb](=[O])([O][Sb]2(=[O])[O][C@H]([C@H](O)CO)[C@H](O)[C@H](C(=O)O)[O]2)[O][C@H]([C@H](O)CO)[C@@H]1O (stereo partly drawn)

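Human melanoma cells were exposed to two drugs together for 72 h in 1,536-well plates and read by automated microscopy after fixing and staining. The read-out is the fraction of cleaved-PARP-positive nuclei, in % of that fraction in the DMSO control; 200 means twice the control level of this apoptosis marker. Concentrations were fixed for each drug; these are the higher of two levels. No replicate spread is given; individual values may be noisy. Basal and induced levels differ widely between cell lines.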
An unselected part of the screen is shown.
An entry leaves out what has no value listed here.

CC(C)CCN1c2nc(Nc3cc(F)c(O)c(F)c3)ncc2N(C)C(=O)C1C (stereo not drawn) at 1 µM gave A101D: 343.
C=CCNC1=C2C[C@@H](C)C[C@H](OC)[C@H](O)[C@@H](C)/C=C(\C)[C@H](OC(N)=O)[C@@H](OC)/C=C\C=C(/C)C(=O)NC(=CC1=O)C2=O at 0.01 µM gave WM1745: 160; A101D: 90.1.
Cc1nc(Nc2ncc(C(=O)Nc3c(C)cccc3Cl)s2)cc(N2CCN(CCO)CC2)n1 at 0.02 µM gave WM1745: 295; A101D: 56.6.
N#CC[C@H](C1CCCC1)n1cc(-c2ncnc3[nH]ccc23)cn1 at 5 µM gave WM1745: 111; A101D: 65.7.
COc1cc(N2CCC(N3CCN(C)CC3)CC2)ccc1Nc1ncc(Cl)c(Nc2ccccc2S(=O)(=O)C(C)C)n1 at 0.4 µM gave A101D: 125.
Cc1cc(SCc2sc(-c3ccc(C(F)(F)F)c(F)c3)nc2C)ccc1OCC(=O)O at 10 µM gave A101D: 26.7.
CS(=O)(=O)c1ccc(C(=O)Nc2ccc(Cl)c(-c3ccccn3)c2)c(Cl)c1 at 5 µM gave WM1745: 83.8; A101D: 86.4.
NC1(c2ccc(-c3nc4ccn5c(=O)[nH]nc5c4cc3-c3ccccc3)cc2)CCC1 at 2 µM gave WM1745: 86.8; A101D: 217.
COc1ccc(-c2ccc3c(N4CCOCC4)nc(N4C[C@@H](C)O[C@@H](C)C4)nc3n2)cc1CO at 0.1 µM gave A101D: 156.
C[As](C)SC[C@H](NC(=O)CC[C@H](N)C(=O)O)C(=O)NCC(=O)O at 2 µM gave WM1745: 61.4; A101D: 237.
CS(=O)(=O)CCNCc1ccc(-c2ccc3ncnc(Nc4ccc(OCc5cccc(F)c5)c(Cl)c4)c3c2)o1 at 4 µM gave WM1745: 106; A101D: 114.
Clc1ccc(Nc2nnc(Cc3ccncc3)c3ccccc23)cc1 at 10 µM gave WM1745: 101; A101D: 83.2.
O=C1NC(=O)/C(=C/c2ccc(-c3ccc(F)cc3O)o2)S1 at 5 µM gave A101D: 94.8.
CN1CCN(c2ccc3nc(-c4c(N)c5c(F)cccc5[nH]c4=O)[nH]c3c2)CC1 at 0.5 µM gave WM1745: 132; A101D: 129.
CCCCCCCCCCCC1=C(O)C(=O)C=C(O)C1=O at 6 µM gave A101D: 181.
COc1cc2c(Oc3ccc4[nH]c(C)cc4c3F)ncnc2cc1OCCCN1CCCC1 at 2 µM gave WM1745: 129; A101D: 355.
COc1ccc(COc2ccc(Cc3cnc(N)nc3N)cc2OC)cc1 at 5 µM gave A101D: 120.
O=C(Nc1cccc(Cl)c1)Nc1ncc(CCNc2ncnc3ccsc23)s1 at 0.004 µM gave WM1745: 210; A101D: 129.
C[C@@H](Oc1cc(-c2cnn(C3CCNCC3)c2)cnc1N)c1c(Cl)ccc(F)c1Cl at 1 µM gave WM1745: 84.0; A101D: 65.0.
CCN(CC)CCCCNc1ncc2cc(-c3cc(OC)cc(OC)c3)c(NC(=O)NC(C)(C)C)nc2n1 at 0.5 µM gave A101D: 185.
COc1ccc(C2=N[C@@H](c3ccc(Cl)cc3)[C@@H](c3ccc(Cl)cc3)N2C(=O)N2CCNC(=O)C2)c(OC(C)C)c1 at 0.5 µM gave WM1745: 119; A101D: 292.
O=C(Nc1ccccc1)c1cc([N+](=O)[O-])ccc1Cl at 10 µM gave A101D: 177.
CCN(CC)CCNC(=O)c1c(C)[nH]c(/C=C2\C(=O)Nc3ccc(F)cc32)c1C at 2 µM gave WM1745: 203; A101D: 110.
Cn1cnc2c(F)c(Nc3ccc(Br)cc3Cl)c(C(=O)NOCCO)cc21 at 0.075 µM gave WM1745: 139; A101D: 209.
Cn1nnc2c(C(N)=O)ncn2c1=O at 10 µM gave WM1745: 108; A101D: 63.4.
CCCCCCCCc1ccc(CCC(N)(CO)CO)cc1 at 10 µM gave WM1745: 134; A101D: 769.
Cn1c(=O)n(-c2ccc(C(C)(C)C#N)cc2)c2c3cc(-c4cnc5ccccc5c4)ccc3ncc21 at 0.02 µM gave WM1745: 209; A101D: 168.
CO[C@H]1C[C@@H]2CC[C@@H](C)[C@@](O)(O2)C(=O)C(=O)N2CCCC[C@H]2C(=O)O[C@H]([C@H](C)C[C@@H]2CC[C@@H](OCCO)[C@H](OC)C2)CC(=O)[C@H](C)/C=C(\C)[C@@H](O)[C@@H](OC)C(=O)[C@H](C)C[C@H](C)/C=C/C=C/C=C/1C at 0.1 µM gave WM1745: 93.2; A101D: 198.
Nc1nc(F)nc2c1ncn2[C@@H]1O[C@H](CO)[C@@H](O)[C@@H]1O at 1 µM gave WM1745: 94.1; A101D: 121.

Source: doi:10.1371/journal.pone.0140310, primary screening data, rounded.